Earlier results in patent publication US20200222564A1, “Compound Amphiphilic Peptide Nanomicelle, Preparation and Use Thereof” (Tianjin University, priority 2019, published 2020).
At least one compound was matched to its structure with a doubt left.

Details: cited from earlier work

O=C([O-])c1c(Cl)c(Cl)c(Cl)c(Cl)c1-c1c2cc(I)c(=O)c(I)c-2oc2c(I)c([O-])c(I)cc12.[Na+].[Na+] [Rose Bengal]
singlet oxygen quantum yield: 0.75
